# The list shows a part of the results.
# B1: SabA (Helicobacter pylori) (protein)
# chain: MGSSHHHHHHSSGLVPRGSHMENLYFQGEDNGFFVSAGYQIGEAVQMVKNTGELKNLNEKYEQLSQYLNQVASLKQSIQNANNIELVNSSLNYLKSFTNNNYNSTTQSPIFNAVQAVITSVLGFWSLYAGNYFTFFVGKKVGDSGQPASVQGNPPFKTIIENCSGIENCAMDQTTYDKMKKLAEDLQAAQTNSATKGNNLCALSGCAATDSTSNPPNSTVSNALNLAQQLMDLIANTKTAMMWKNIVISGVSNTSGAITSTNYPTQYAVFNNIKAMIPILQQAVTLSQSNHTLSASLQAQATGSQTNPKFAKDIYTFAQNQKQVISYAQDIFNLFNSIPAEQYKYLEKAYLKIPNAGSTPTNPYRQVVNLNQEVQTIKNNVSYYGNRVDAALSVARDVYNLKSNQAEIVTAYNDAKTLSEEISKLPHNQVNTKDIVTLPYDKNAPAAGQSNYQINPEQQSNLNQALAAMSNNPFKKVGMISSQNNNGA
# Experiments:
# Experiment in all cases: glycan array binding signal (z-score within array); higher = stronger binding
# Conditions in all cases: glycan notation: IUPAC condensed, linker removed
# [1] = target: Neu5Ac(a2-6)Gal(b1-4)GlcNAc(b1-2)Man(a1-3)[GlcNAc(b1-4)][Neu5Ac(a2-6)Gal(b1-4)GlcNAc(b1-2)Man(a1-6)]Man(b1-4)GlcNAc(b1-4)GlcNAc
# Procedure, shortened: (§1)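 Columns mapping to the same glycan were averaged after glycan names were converted to IUPAC-condensed notation. The data come from 3228 arrays in the Consortium for Functional Glycomics database, limited to those with an available protein sequence. Binding is reported as a within-array Z-score averaged across arrays of one protein sequence and across linkers.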
# [2] = target: Neu5Ac(a2-6)Gal(b1-4)GlcNAc(b1-2)Man(a1-3)[Man(a1-6)]Man(b1-4)GlcNAc(b1-4)GlcNAc
# Procedure, shortened: as §1
# [3] = target: Neu5Ac(a2-6)Gal(b1-4)GlcNAc(b1-2)Man(a1-3)[Neu5Ac(a2-3)Gal(b1-4)GlcNAc(b1-2)Man(a1-6)]Man(b1-4)GlcNAc(b1-4)GlcNAc
# Procedure, shortened: as §1
# [4] = target: Neu5Ac(a2-6)Gal(b1-4)GlcNAc(b1-2)Man(a1-3)[Neu5Ac(a2-6)Gal(b1-4)GlcNAc(b1-2)Man(a1-6)]Man(b1-4)GlcNAc(b1-4)GlcNAc
# Procedure, shortened: as §1
# [5] = target: Neu5Ac(a2-6)Gal(b1-4)GlcNAc(b1-2)Man(a1-3)[Neu5Ac(a2-6)Gal(b1-4)GlcNAc(b1-2)Man(a1-6)]Man(b1-4)GlcNAc(b1-4)[Fuc(a1-6)]GlcNAc
# Procedure, shortened: as §1
# [6] = target: Neu5Ac(a2-6)Gal(b1-4)GlcNAc(b1-2)Man(a1-6)Man(b1-4)GlcNAc(b1-4)GlcNAc
# Procedure, shortened: as §1
# [7] = target: Neu5Ac(a2-6)Gal(b1-4)GlcNAc(b1-2)Man(a1-6)[Gal(b1-4)GlcNAc(b1-2)Man(a1-3)]Man(b1-4)GlcNAc(b1-4)GlcNAc
# Procedure, shortened: as §1
# [8] = target: Neu5Ac(a2-6)Gal(b1-4)GlcNAc(b1-2)Man(a1-6)[GlcNAc(b1-2)Man(a1-3)]Man(b1-4)GlcNAc(b1-4)GlcNAc
# Procedure, shortened: as §1
# [9] = target: Neu5Ac(a2-6)Gal(b1-4)GlcNAc(b1-2)Man(a1-6)[Man(a1-3)]Man(b1-4)GlcNAc(b1-4)GlcNAc
# Procedure, shortened: as §1
# [10] = target: Neu5Ac(a2-6)Gal(b1-4)GlcNAc(b1-2)[Neu5Ac(a2-6)Gal(b1-4)GlcNAc(b1-4)]Man(a1-3)[GlcNAc(b1-4)][Neu5Ac(a2-6)Gal(b1-4)GlcNAc(b1-2)[Neu5Ac(a2-6)Gal(b1-4)GlcNAc(b1-6)]Man(a1-6)]Man(b1-4)GlcNAc(b1-4)GlcNAc
# Procedure, shortened: as §1
# [11] = target: Neu5Ac(a2-6)Gal(b1-4)GlcNAc(b1-2)[Neu5Ac(a2-6)Gal(b1-4)GlcNAc(b1-4)]Man(a1-3)[GlcNAc(b1-4)][Neu5Ac(a2-6)Gal(b1-4)GlcNAc(b1-4)Man(a1-6)]Man(b1-4)GlcNAc(b1-4)GlcNAc
# Procedure, shortened: as §1
# [12] = target: Neu5Ac(a2-6)Gal(b1-4)GlcNAc(b1-2)[Neu5Ac(a2-6)Gal(b1-4)GlcNAc(b1-6)]Man(a1-6)[Neu5Ac(a2-6)Gal(b1-4)GlcNAc(b1-2)Man(a1-3)][GlcNAc(b1-4)]Man(b1-4)GlcNAc(b1-4)GlcNAc
# Procedure, shortened: as §1
# [13] = target: Neu5Ac(a2-6)Gal(b1-4)GlcNAc(b1-3)Gal(b1-3)GlcNAc
# Procedure, shortened: as §1
# [14] = target: Neu5Ac(a2-6)Gal(b1-4)GlcNAc(b1-3)Gal(b1-4)GlcNAc
# Procedure, shortened: as §1
# [15] = target: Neu5Ac(a2-6)Gal(b1-4)GlcNAc(b1-3)Gal(b1-4)GlcNAc(b1-2)Man(a1-3)[Neu5Ac(a2-6)Gal(b1-4)GlcNAc(b1-3)Gal(b1-4)GlcNAc(b1-2)Man(a1-6)]GalNAc
# Procedure, shortened: as §1
# [16] = target: Neu5Ac(a2-6)Gal(b1-4)GlcNAc(b1-3)Gal(b1-4)GlcNAc(b1-3)Gal(b1-4)GlcNAc
# Procedure, shortened: as §1
# [17] = target: Neu5Ac(a2-6)Gal(b1-4)GlcNAc(b1-3)Gal(b1-4)GlcNAc(b1-3)Gal(b1-4)GlcNAc(b1-2)Man(a1-3)[Neu5Ac(a2-6)Gal(b1-4)GlcNAc(b1-3)Gal(b1-4)GlcNAc(b1-3)Gal(b1-4)GlcNAc(b1-2)Man(a1-6)]GalNAc
# Procedure, shortened: as §1
# [18] = target: Neu5Ac(a2-6)Gal(b1-4)GlcNAc(b1-3)Gal(b1-4)GlcNAc(b1-3)GalNAc
# Procedure, shortened: as §1
# [19] = target: Neu5Ac(a2-6)Gal(b1-4)GlcNAc(b1-3)Gal(b1-4)GlcNAc(b1-3)[Neu5Ac(a2-6)Gal(b1-4)GlcNAc(b1-3)Gal(b1-4)GlcNAc(b1-6)]GalNAc
# Procedure, shortened: as §1
# [20] = target: Neu5Ac(a2-6)Gal(b1-4)GlcNAc(b1-3)Gal(b1-4)GlcNAc(b1-6)[Gal(b1-3)]GalNAc
# Procedure, shortened: as §1
# [21] = target: Neu5Ac(a2-6)Gal(b1-4)GlcNAc(b1-3)Gal(b1-4)[Fuc(a1-3)]GlcNAc(b1-3)Gal(b1-4)[Fuc(a1-3)]GlcNAc
# Procedure, shortened: as §1
# [22] = target: Neu5Ac(a2-6)Gal(b1-4)GlcNAc(b1-3)GalNAc
# Procedure, shortened: as §1
# [23] = target: Neu5Ac(a2-6)Gal(b1-4)GlcNAc(b1-3)[Neu5Ac(a2-6)Gal(b1-4)GlcNAc(b1-6)]GalNAc
# Procedure, shortened: as §1
# [24] = target: Neu5Ac(a2-6)Gal(b1-4)GlcNAc(b1-6)GalNAc
# Procedure, shortened: as §1
# [25] = target: Neu5Ac(a2-6)Gal(b1-4)GlcNAc(b1-6)[Gal(b1-3)GlcNAc(b1-3)]Gal(b1-4)Glc
# Procedure, shortened: as §1
# [26] = target: Neu5Ac(a2-6)Gal(b1-4)GlcNAc(b1-6)[Gal(b1-3)]GalNAc
# Procedure, shortened: as §1
# [27] = target: Neu5Ac(a2-6)Gal(b1-4)GlcNAc6S
# Procedure, shortened: as §1
# Neu5Ac(a2-6)GalNAc = target: Neu5Ac(a2-6)GalNAc
# Procedure, shortened: as §1
# [28] = target: Neu5Ac(a2-6)GalNAc(b1-4)GlcNAc
# Procedure, shortened: as §1
# [29] = target: Neu5Ac(a2-6)GalNAc(b1-4)GlcNAc6S
# Procedure, shortened: as §1
# [30] = target: Neu5Ac(a2-6)GlcNAc(b1-4)GlcNAc
# Procedure, shortened: as §1
binder,measurement,setting,value
B1,glycan array binding signal (z-score),[1],-0.273
same,glycan array binding signal (z-score),[2],-0.257
same,glycan array binding signal (z-score),[3],-0.588
same,glycan array binding signal (z-score),[4],0.38
same,glycan array binding signal (z-score),[5],-0.576
same,glycan array binding signal (z-score),[6],-0.43
same,glycan array binding signal (z-score),[7],-0.045
same,glycan array binding signal (z-score),[8],-0.172
same,glycan array binding signal (z-score),[9],-0.358
same,glycan array binding signal (z-score),[10],-0.496
same,glycan array binding signal (z-score),[11],0.247
same,glycan array binding signal (z-score),[12],-0.507
same,glycan array binding signal (z-score),[13],-0.482
same,glycan array binding signal (z-score),[14],-0.335
same,glycan array binding signal (z-score),[15],0.572
same,glycan array binding signal (z-score),[16],0.008
same,glycan array binding signal (z-score),[17],0.784
same,glycan array binding signal (z-score),[18],0.056
same,glycan array binding signal (z-score),[19],-0.366
same,glycan array binding signal (z-score),[20],-0.367
same,glycan array binding signal (z-score),[21],-0.74
same,glycan array binding signal (z-score),[22],0.083
same,glycan array binding signal (z-score),[23],-0.055
same,glycan array binding signal (z-score),[24],0.426
same,glycan array binding signal (z-score),[25],-0.126
same,glycan array binding signal (z-score),[26],-0.359
same,glycan array binding signal (z-score),[27],-0.733
same,glycan array binding signal (z-score),Neu5Ac(a2-6)GalNAc,-0.422
same,glycan array binding signal (z-score),[28],-0.153
same,glycan array binding signal (z-score),[29],-0.819
same,glycan array binding signal (z-score),[30],-0.998

# Reformatted: entries from further up.
binder	measurement	setting	value
B1	glycan array binding signal (z-score)	[1]	-0.273
same	glycan array binding signal (z-score)	[5]	-0.576
same	glycan array binding signal (z-score)	[10]	-0.496
same	glycan array binding signal (z-score)	[14]	-0.335
same	glycan array binding signal (z-score)	[16]	0.008
same	glycan array binding signal (z-score)	[18]	0.056
same	glycan array binding signal (z-score)	[26]	-0.359
same	glycan array binding signal (z-score)	Neu5Ac(a2-6)GalNAc	-0.422

# From the supplement of paper PMC8728848
